# The supplement of paper PMC3334620
# In all, about 33,000 sequences were measured (“E-score (-0.5 to 0.5)”: median about -8e-05, highest 2% from about 0.23 on). The list shows a part of the results.
# Target: T1, Nrg2 (UniProt P38082)
# T1 sequence: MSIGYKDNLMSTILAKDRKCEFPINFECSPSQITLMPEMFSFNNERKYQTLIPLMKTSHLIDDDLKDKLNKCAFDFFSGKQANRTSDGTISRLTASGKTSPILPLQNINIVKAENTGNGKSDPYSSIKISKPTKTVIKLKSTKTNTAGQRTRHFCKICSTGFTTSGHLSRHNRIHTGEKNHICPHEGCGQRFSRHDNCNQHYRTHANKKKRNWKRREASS
# Assay: PBM E-score (8-mer binding enrichment) (E-score (-0.5 to 0.5)); higher = stronger / more preferred TF binding
# Conditions: protein concentration: 100 nM; construct: GST-full length
# Description: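 Universal 'all 10-mer' protein binding microarrays (Agilent AMADID 015681) probed with GST-tagged S. cerevisiae TFs (full-length or DBD) made by in vitro transcription/translation (PURExpress), about 100-200 nM. Bound TF was detected with fluorescent anti-GST. Each ungapped 8-mer (which stands for itself and its reverse complement) is scored by the PBM enrichment score (E-score), a modified Wilcoxon-Mann-Whitney statistic from -0.5 to +0.5, computed with the Universal PBM Analysis Suite. Scale: above 0.35 generally sequence-specific binding.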
row,Sequence,PBM E-score
1,AGTGATAC,-0.0019
2,ATGTCTAA,0.0784
3,GAACAGGA,-0.0211
4,CAAGTTGC,0.0505
5,CCTCCACA,-0.0559
6,GTGCCTTA,-0.0409
7,GTTTAACA,-0.0627
8,AGTACCTC,-0.077
9,GGCTTCCC,-0.194
10,AGGTCGAT,0.105
11,GATACGAC,0.0685
12,GATCTCCA,0.0533
13,ACTCTTAG,-0.0539
14,GAACCAAC,0.103
15,GATATCGA,0.0243
16,ATCCGCCA,-0.087
17,ACGTTCAT,-0.178
18,GGGCCAGA,-0.194
19,GACACCCA,-0.0539
20,AAGAATCT,-0.145
21,TACTTCGA,0.23
22,ACGTAAAC,-0.121
23,AAACCGTC,-0.148
24,AATGCTAT,0.00339
25,GGGCTAGA,-0.0953

row,Sequence,PBM E-score
1,ACTCCTCC,-0.218
2,AGGCATGA,-0.13
3,TCGAAAAA,0.166
4,AAGCCTCA,-0.176
5,TCTCCTAA,-0.0733
6,AACAGCGC,-0.00535
7,ACAACTAG,-0.055
8,GGTTCCAA,0.147
9,CCGAGCGA,0.0987
10,CAAATGCC,-0.0811
11,AAGACCCG,0.0509
12,AATAGGCT,-0.00861
13,GGGATAAC,-0.0795
14,CTAATTGC,0.0943
15,CAGCGCCC,-0.0558
16,GGGTCTCA,0.0513
17,GTCGGCAA,-0.0874
18,CCTGTTGC,0.142
19,ACCGACTA,-0.367
20,AGCTGCAA,-0.0919
21,GGGTGGAC,-0.09
22,GACCCCGA,0.0746
23,CGATTTGA,0.0683
24,GAACTCCC,-0.0215
25,ACTTTATC,0.0288

row,Sequence,PBM E-score
1,GGAGCTTA,-0.191
2,GGGCCTCA,0.0757
3,AACGGTGG,-0.171
4,CATAAGAG,-0.0444
5,AGAAGCTC,0.0172
6,GGAGTGCC,0.0483
7,CATGCAGC,-0.0372
8,AGAGAGGG,-0.151
9,AAAGCTGC,0.0809
10,ATGCCTCG,0.0817
11,ACCGGGCA,-0.19
12,AATGAGCC,-0.164
13,AAATGTCT,-0.0438
14,GTCAATCA,-0.0641
15,CCAAGATC,0.0488
16,ATCTTCCC,-0.0523
17,AACCGATG,0.0555
18,CGCGTCCG,0.0579
19,ACGATGAC,-0.233
20,GCCCGACA,0.101
21,ACTGCACG,-0.0983
22,CGCTCGTC,-0.167
23,GATGATTA,0.0695
24,CGTCCGCA,-0.187
25,ACGTTTCC,-0.16

row,Sequence,PBM E-score
1,CGCTCCAA,-0.141
2,CGGAGTTA,-0.0895
3,GTTCTAAA,-0.0825
4,AACACTTG,0.0302
5,GCCTACAA,0.0441
6,CCCCGAGA,-0.0523
7,TCGAGGAA,-0.0948
8,GAGGAGTA,-0.0769
9,GCAACGTA,-0.00927
10,CACACTTA,-0.0163
11,AGGCCTGA,-0.118
12,AGTGGCTG,0.126
13,CGATCCAA,-0.033
14,CTATGTAA,-0.0136
15,ATCGAATG,0.06
16,AGCACTAT,-0.0184
17,CTAAAAGA,-0.198
18,GCTTATCA,-0.0144
19,ATCCGATC,0.0278
20,TATATTGA,0.141
21,ACAACATC,-0.042
22,AATAACGC,-0.0905
23,CCCCGATA,-0.0437
24,CTCGTGGC,-0.051
25,GGTGAACC,0.0324

row,Sequence,PBM E-score
1,CCCTTAAG,0.189
2,AGTCTATC,-0.0531
3,AGTTAGAA,0.045
4,CCGGTGTA,-0.106
5,CCTAAGTA,0.0734
6,AACGGCCT,-0.0615
7,GGCTAACA,0.0553
8,ACTCGTAC,-0.0658
9,ATTAACTA,0.136
10,CCAACTGG,0.135
11,ATACCGAC,-0.243
12,ATTAATGG,0.143
13,ATATACCA,0.0362
14,GCTGAGTA,0.0995
15,CCATATAG,0.0129
16,TAGGTGGA,-0.136
17,GGATCATA,-0.00715
18,AAATATAC,0.0852
19,GTTCTCCA,0.0382
20,AACTAGTT,-0.0452
21,CGTATGGA,0.124
22,CGACCAAA,0.222
23,AGCGATTC,-0.02
24,AGAGGCCC,-0.074
25,ATTTTATC,0.0877

# Some of the entries so far, bar-delimited:
row | Sequence | PBM E-score
21 | ACTGCACG | -0.0983
22 | CGCTCGTC | -0.167
23 | GATGATTA | 0.0695

# Additional records follow.

row,Sequence,PBM E-score
1,GAGGTTAA,-0.06
2,GCCAACCC,-0.0658
3,AAATACGA,0.0699
4,ACGCTACC,-0.262
5,ACTCCTTG,0.101
6,AGTGAACG,-0.176
7,CCATAGTA,0.0238
8,CTGCTACC,-0.0751
9,ATTCTCGA,0.169
10,GCTTAGTA,-0.117
11,CAATTACC,0.024
12,ATCGTGAC,-0.038
13,CTTCGGTC,0.0242
14,ATCTAAAT,-0.00067
15,CTTTCGCA,-0.0222
16,AACTAAAC,0.044
17,CGCCGGAG,-0.168
18,CAGGAGGC,-0.118
19,GCCATCGA,0.199
20,CGGCAAAA,-0.0769
21,CACGAGGC,-0.027
22,CAAGGTAG,0.0672
23,ACGAGGCA,-0.0798
24,GGGGTCCA,0.27
25,GCAAAAGC,-0.0337

# Quoted at random: 6 entries already listed
row,Sequence,PBM E-score
24,GGGGTCCA,0.27
8,CTGCTACC,-0.0751
12,ATCGTGAC,-0.038
15,CTTTCGCA,-0.0222
17,CGCCGGAG,-0.168
25,GCAAAAGC,-0.0337

# As entered above:
# Under PBM E-score, CACGAGGC has -0.027
# Under PBM E-score, CAATTACC has 0.024

# More entries:

row,Sequence,PBM E-score
1,CGGTCGTA,-0.117
2,AAGCAATT,0.0783
3,AGATGTGA,0.0509
4,GCATTTTA,0.116
5,TATGAAGA,0.0773
6,CGTGTGAG,0.0244
7,CATCGACC,-0.0514
8,AAAACTCA,0.0944
9,ACGGCACT,0.0185
10,GAATGATA,0.247
11,CCGTCCTA,-0.111
12,ACAGCTAT,-0.0144
13,ACGCGTTG,0.0622
14,CAGTGACG,0.00591
15,GCTGTTAA,0.0173
16,TACATCGA,0.1
17,ATCGGGTA,-0.128
18,CTTACGCC,-0.0773
19,AGGAATCC,-0.00661
20,CCAGTTCG,0.0674
21,CAGGCCCA,-0.234
22,CCTGCGCA,0.0615
